Assay results taken from PMC10475362.
No constants are given. Whether binding was seen depends on the method and setting. In cells and extracts the contact can be indirect. Some binding calls cover weakened binding; strength is not graded here. Where a sequence is shown, tags or fusion partners need not be part of it.

The chains behind the UniProt entries cited, without tags or fusion partners.
UniProt O75365: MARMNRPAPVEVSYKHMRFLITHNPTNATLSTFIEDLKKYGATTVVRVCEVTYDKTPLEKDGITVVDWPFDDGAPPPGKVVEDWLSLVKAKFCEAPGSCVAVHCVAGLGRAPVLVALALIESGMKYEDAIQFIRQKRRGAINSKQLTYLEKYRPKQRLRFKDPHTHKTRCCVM

T1: myc-TMED10 (human) (UniProt P49755)
T1 sequence: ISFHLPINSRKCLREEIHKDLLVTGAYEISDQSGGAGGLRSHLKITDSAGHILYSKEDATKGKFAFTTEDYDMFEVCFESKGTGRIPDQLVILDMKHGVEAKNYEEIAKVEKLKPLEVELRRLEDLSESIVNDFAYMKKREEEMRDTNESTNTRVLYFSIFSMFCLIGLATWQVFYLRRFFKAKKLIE


How the values were obtained:
[1] = target: T1, myc-TMED10 (human); experiment: co-IP; HCT116 cells transiently transfected with GST-PRL-3 and myc-TMED10 for 48 hours; lysis in 50 mM Tris-HCl pH 7.5, 150 mM NaCl, 1 mM EDTA, 0.5% NP-40; immunoprecipitation with anti-myc antibody, Western blotting
[2] = target: GST-PRL-3 (human) (UniProt O75365); experiment: pull-down; HCT116 cells transiently transfected with GST-PRL-3 and myc-TMED10 for 48 hours; lysis in 50 mM Tris-HCl pH 7.5, 150 mM NaCl, 1 mM EDTA, 0.5% NP-40; GST pull-down from the lysate with Glutathione Sepharose, Western blotting

Row | binding [1] | binding [2] | Molecule
1 | binds | – | GST-PRL-3 (from UniProt O75365 1-173)
2 | – | binds | myc-TMED10 (protein, UniProt P49755 32-219) ISFHLPINSRKCLREEIHKDLLVTGAYEISDQSGGAGGLRSHLKITDSAGHILYSKEDATKGKFAFTTEDYDMFEVCFESKGTGRIPDQLVILDMKHGVEAKNYEEIAKVEKLKPLEVELRRLEDLSESIVNDFAYMKKREEEMRDTNESTNTRVLYFSIFSMFCLIGLATWQVFYLRRFFKAKKLIE
